Reference: article doi:10.1101/318840
These are yes or no findings as the source states them, for the method shown. In cells and extracts the contact can be indirect. Some binding calls cover weakened binding; strength is not graded here. Sequences can lack the tags named with a protein.

Target: T1, FLAG-tagged viperin (human) (human) (UniProt Q8WXG1)
T1 sequence: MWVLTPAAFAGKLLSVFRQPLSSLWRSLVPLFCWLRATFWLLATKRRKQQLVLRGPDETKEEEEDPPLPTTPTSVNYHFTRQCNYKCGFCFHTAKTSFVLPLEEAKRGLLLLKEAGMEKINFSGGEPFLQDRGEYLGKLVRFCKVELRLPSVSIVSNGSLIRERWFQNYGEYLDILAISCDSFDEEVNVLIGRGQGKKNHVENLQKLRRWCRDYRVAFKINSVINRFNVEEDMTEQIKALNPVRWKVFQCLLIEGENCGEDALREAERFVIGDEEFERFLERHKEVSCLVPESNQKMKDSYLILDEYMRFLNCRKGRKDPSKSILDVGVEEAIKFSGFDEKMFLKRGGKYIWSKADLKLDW
Test: co-IP

Q: How did the binding turn out when “interleukin-1 receptor-associated kinase-1 (IRAK1), N-terminal Myc tag (from UniProt P51617-1 1-712) (enzyme)” was run?
A: The binding was “binds”.
